Results from PubChem BioAssay AID1487 (National Center for Advancing Translational Sciences (NCATS), 2009).
“And” between values parts separate entries of the source, which are not always exact repeats. Identical values can stand only once. This is one part of the list. Shown are side measurements of this screen, not its main read-out; they come without a call. Most of these compounds were active or inconclusive in the main read-out, so they are no random draw. Words in brackets tell the shape of the fitted curve; partial curves, single points and poor fits give uncertain potencies.

Test: qHTS Assay for Modulators of Lamin A Splicing
Settings: HeLa LMNA splicing GFP/RFP minigene ratio, 48 h
How it was run: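 S3 HeLa stable clones carrying a lamin A-EGFP splicing minigene plus DsRed2 were seeded at 600 cells/well in Opti-MEM with 2% FBS, pin-dosed and incubated 48 h at 37°C. Acumen cytometry (488 nm) gave the GFP/RFP total-intensity ratio.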

[1] = measured here: GFP splicing reporter channel
[2] = measured here: RFP viability control channel

Row | Structure (SMILES) | AC50 [1] | AC50 [2]
1 | Cc1nn(Cc2c(Cl)cccc2Cl)c(C)c1NC(=O)c1cn(-c2ccccc2)nc1-c1ccccc1 | 7.08 µM [falling, full curve] | 5.62 µM [falling, full curve]
2 | Cc1ccc(C(=O)/C=C/c2c[nH]c3ccccc23)cc1 | 15.8 µM [falling, single point] | 35.5 µM [falling, single point]
3 | O=C(COC(=O)Cn1cnc2ccccc2c1=O)Nc1ccccc1Sc1ccc(Cl)cc1 | 11.2 µM [rising, single point] | 12.6 µM [rising, partial curve]
4 | CC(C)c1ccc(NC(=O)C[n+]2ccn(C3=C([O-])c4ccccc4C3=O)c2)cc1 | 0.00794 µM [falling, full curve, poor fit] | –
5 | CCOCCn1c(CN(Cc2ccccc2)Cc2ccccc2)nc2c1c(=O)n(C)c(=O)n2C | 35.5 µM [rising, single point] | –
6 | Cn1c(Cc2ccccc2)nnc1SCC(=O)N1CCN(c2ccccc2)CC1 | 10 µM [rising, partial curve, poor fit] | 15.8 µM [rising, single point]
7 | COc1ccc(-c2nnc(NC(=O)c3ccc(F)cc3)o2)cc1 | – | 6.31 µM [rising, full curve]
8 | Fc1ccc(CSc2ncnc3scc(-c4ccccc4)c23)cc1 | – | 15.8 µM [rising, partial curve]
9 | CC(C)Cc1nc(N2CCOCC2)c(C#N)c2c1CCC2 | 35.5 µM [rising, single point] | 35.5 µM [rising, single point]
10 | C=CC(c1ccccc1)C(C(=O)c1ccccc1)N(C)C (centres undefined) | – | 2.24 µM [falling, full curve, poor fit]
11 | Cc1nc(N)nc(N)c1/C=C/C(C)(C)c1ccc(Cl)cc1 | 20 µM [falling, partial curve] | 20 µM [falling, partial curve]
12 | COc1ccc(-c2nc3cnc(Oc4cccc(Cl)c4)nc3n(CCC#N)c2=O)cc1 | 12.6 µM [falling, partial curve] | 11.2 µM [falling, partial curve]
13 | COc1cc(S(=O)(=O)N2CCCCC2)ccc1NC(=O)c1ccccc1Cl | – | 35.5 µM [rising, single point]
14 | Cc1ccc(CNc2ncnc3c2cnn3-c2ccc(Cl)cc2)cc1 | 35.5 µM [falling, single point] | 0.0282 µM [falling, full curve, poor fit]
15 | OCc1cc(C(O)CNCCCCCCOCCCCc2ccccc2)ccc1O (centres undefined) | 17.8 µM [falling, single point] and 1.26 nM [falling, full curve, poor fit] | 14.1 µM [falling, partial curve]
